From patent US20090312253A1
These are yes or no findings as the source states them, for the method shown. Binding seen in cells or lysates may run through a third protein. Some results given as binding are weak or reduced against the parent protein; the word gives no strength. Where a sequence is shown, tags or fusion partners need not be part of it.

Protein sequences, listed by entry. Tags and fused reporters are not part of them. Residues count along the entry.
UniProt Q91VN0, residues 31-287: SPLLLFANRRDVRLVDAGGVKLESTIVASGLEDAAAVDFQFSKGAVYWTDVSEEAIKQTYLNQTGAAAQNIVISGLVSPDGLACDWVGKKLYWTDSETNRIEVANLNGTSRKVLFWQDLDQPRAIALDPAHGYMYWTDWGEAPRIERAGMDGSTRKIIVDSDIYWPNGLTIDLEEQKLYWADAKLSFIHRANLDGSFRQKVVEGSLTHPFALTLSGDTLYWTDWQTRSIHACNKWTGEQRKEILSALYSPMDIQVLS

Target: first β-propeller domain of mouse LRP5 with HA tag (LRP5-PD1-HA) (mouse) (UniProt Q91VN0)
Assay: S-protein-agarose pulldown of LRP5-PD1-HA conditioned medium with S-tagged Dkk2C2, anti-HA Western blot

binding: binds
B1: S-tagged Dkk2C2 (recombinant C-terminal cysteine-rich domain of mouse Dkk2, amino acids Met172-Ile259, with N-terminal S tag and thrombin cleavage site) (ligand, not shown: small tags and cut ends)
chain: MPHIKGHEGDPCLRSSDCIDGFCCARHFWTKICKPVLHQGEVCTKQRKKGSHGLEIFQRCDCAKGLSCKVWKDATYSSKARLHVCQKI
